This is one part of the list.
Compound: Cc1cn(-c2cc(NC(=O)c3ccc(C)c(Nc4nccc(-c5cccnc5)n4)c3)cc(C(F)(F)F)c2)cn1 [nilotinib]
Assay: log2 fold change, soluble protein after heating vs DMSO (PISA); higher = thermal stabilisation; K562 cells, 10 uM, 30 min; active = over 0.2 and 3.5 SD of the protein, either way, in both replicates (recomputed)
How it was run: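 Quantification of soluble protein used TMTpro 16plex LC-MS/MS, with channel sums equalised. Samples were the supernatant after 21,000xg for 90 min of pooled aliquots from K562 cells (2×10^6 cells/mL) treated with 10 μM compound for 30 min, heated for 3 min over 48°C-58°C, and extracted in PBS with 0.5% NP-40 at 4°C. Values, from duplicates, describe thermal stability against control samples on a log2 fold-change scale.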

Protein sequences, listed by entry. Tags and fused reporters are not part of them. Lines headed by an entry give the natural chain unless they say otherwise; changes in a name come on top.
UniProt Q9Y5Y0: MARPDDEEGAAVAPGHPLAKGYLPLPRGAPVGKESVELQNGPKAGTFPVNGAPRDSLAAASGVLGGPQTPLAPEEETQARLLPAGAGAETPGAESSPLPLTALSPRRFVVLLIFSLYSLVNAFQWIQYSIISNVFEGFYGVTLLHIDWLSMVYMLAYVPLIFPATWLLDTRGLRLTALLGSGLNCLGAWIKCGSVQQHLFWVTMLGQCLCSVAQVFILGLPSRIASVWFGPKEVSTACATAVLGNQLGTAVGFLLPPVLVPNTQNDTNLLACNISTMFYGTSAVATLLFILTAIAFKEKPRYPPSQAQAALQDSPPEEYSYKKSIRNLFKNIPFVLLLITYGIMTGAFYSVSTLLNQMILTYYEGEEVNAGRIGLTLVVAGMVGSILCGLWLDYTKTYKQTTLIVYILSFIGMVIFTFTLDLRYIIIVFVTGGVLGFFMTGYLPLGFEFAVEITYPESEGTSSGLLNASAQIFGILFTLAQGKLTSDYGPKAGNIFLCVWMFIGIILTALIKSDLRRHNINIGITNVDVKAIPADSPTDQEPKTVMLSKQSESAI
UniProt Q9UBU6: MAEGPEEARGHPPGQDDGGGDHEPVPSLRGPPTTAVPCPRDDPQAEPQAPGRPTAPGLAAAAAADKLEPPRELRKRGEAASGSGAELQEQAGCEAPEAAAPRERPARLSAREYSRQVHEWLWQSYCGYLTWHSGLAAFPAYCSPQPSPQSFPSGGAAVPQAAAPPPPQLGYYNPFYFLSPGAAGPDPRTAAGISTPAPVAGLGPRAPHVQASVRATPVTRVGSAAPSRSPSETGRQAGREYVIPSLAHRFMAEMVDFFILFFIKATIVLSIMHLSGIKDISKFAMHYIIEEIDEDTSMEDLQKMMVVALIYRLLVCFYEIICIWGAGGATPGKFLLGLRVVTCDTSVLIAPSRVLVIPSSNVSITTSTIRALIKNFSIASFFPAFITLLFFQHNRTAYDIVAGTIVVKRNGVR
UniProt O95684: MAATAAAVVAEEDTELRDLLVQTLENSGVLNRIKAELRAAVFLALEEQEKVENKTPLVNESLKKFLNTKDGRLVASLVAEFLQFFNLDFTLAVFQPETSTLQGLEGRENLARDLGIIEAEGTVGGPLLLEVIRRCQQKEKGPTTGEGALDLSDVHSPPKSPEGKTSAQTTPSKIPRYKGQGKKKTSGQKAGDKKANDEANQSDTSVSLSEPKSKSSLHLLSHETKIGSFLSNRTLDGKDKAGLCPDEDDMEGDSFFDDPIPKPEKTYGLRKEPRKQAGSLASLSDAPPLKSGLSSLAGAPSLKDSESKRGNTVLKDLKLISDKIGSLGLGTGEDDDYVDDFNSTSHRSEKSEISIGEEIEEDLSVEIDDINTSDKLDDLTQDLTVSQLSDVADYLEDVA
UniProt Q9NWM8: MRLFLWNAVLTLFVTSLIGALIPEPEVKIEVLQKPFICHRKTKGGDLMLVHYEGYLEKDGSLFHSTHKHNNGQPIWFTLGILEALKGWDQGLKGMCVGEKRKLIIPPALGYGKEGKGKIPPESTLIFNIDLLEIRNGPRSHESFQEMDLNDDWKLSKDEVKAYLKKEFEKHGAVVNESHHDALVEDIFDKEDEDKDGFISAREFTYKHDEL
UniProt Q92913: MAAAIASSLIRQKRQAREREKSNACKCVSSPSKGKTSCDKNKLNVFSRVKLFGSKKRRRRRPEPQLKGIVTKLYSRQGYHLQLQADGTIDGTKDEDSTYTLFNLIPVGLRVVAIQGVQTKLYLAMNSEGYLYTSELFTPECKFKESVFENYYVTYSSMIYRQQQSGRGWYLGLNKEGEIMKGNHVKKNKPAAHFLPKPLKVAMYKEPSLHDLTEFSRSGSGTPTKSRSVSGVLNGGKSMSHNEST
UniProt Q9NRD1: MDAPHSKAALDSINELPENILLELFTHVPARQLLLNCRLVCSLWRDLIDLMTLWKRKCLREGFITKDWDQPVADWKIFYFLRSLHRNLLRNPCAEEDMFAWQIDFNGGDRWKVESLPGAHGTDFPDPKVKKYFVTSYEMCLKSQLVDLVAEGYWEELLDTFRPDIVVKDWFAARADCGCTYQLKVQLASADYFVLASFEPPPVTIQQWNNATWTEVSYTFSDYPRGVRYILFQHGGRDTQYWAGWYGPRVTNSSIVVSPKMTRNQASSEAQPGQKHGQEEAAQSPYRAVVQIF
UniProt P26885: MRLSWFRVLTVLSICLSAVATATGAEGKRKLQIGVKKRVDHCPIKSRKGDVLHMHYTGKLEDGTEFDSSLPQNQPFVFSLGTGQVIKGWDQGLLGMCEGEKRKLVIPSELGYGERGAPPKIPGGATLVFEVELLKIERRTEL
UniProt Q9Y421: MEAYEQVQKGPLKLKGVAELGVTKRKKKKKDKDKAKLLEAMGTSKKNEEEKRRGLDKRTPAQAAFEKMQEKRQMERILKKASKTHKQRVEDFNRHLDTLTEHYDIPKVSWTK
UniProt P14324: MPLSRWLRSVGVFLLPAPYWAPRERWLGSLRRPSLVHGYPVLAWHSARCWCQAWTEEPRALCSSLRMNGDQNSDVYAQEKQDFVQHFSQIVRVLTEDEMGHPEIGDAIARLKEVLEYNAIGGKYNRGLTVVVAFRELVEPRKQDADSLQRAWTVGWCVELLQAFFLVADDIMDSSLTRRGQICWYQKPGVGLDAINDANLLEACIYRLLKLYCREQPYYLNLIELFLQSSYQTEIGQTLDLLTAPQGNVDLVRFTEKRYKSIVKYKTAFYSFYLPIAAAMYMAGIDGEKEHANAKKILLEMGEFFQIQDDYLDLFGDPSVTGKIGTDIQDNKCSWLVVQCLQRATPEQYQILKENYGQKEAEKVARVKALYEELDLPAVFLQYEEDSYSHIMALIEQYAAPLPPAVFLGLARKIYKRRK
UniProt Q8N3X1: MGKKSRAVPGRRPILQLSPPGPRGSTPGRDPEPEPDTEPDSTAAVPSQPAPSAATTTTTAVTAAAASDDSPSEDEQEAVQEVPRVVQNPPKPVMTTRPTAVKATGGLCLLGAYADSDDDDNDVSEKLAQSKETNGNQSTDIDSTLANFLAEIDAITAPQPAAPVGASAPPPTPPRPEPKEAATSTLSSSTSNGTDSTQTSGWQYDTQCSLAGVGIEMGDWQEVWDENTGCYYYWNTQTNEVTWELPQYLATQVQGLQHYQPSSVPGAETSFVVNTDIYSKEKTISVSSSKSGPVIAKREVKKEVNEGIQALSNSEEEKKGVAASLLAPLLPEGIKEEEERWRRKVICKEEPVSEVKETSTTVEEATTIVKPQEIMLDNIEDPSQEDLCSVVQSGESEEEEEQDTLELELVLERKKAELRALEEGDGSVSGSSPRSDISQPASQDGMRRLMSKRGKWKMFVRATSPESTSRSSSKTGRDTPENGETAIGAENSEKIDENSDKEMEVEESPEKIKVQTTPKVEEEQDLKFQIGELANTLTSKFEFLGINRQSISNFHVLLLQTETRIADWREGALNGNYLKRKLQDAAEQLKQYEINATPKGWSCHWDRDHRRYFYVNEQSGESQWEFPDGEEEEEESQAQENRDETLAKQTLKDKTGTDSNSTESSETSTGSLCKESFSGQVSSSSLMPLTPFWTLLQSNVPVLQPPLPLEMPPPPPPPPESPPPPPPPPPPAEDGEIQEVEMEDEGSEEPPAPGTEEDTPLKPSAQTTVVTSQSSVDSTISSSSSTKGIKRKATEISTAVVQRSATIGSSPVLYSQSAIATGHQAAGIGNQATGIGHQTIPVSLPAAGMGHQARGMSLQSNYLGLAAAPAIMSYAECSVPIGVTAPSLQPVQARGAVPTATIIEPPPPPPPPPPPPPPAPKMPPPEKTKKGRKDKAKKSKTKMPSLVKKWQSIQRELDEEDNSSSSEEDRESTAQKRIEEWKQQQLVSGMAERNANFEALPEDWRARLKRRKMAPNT
UniProt Q52LJ0: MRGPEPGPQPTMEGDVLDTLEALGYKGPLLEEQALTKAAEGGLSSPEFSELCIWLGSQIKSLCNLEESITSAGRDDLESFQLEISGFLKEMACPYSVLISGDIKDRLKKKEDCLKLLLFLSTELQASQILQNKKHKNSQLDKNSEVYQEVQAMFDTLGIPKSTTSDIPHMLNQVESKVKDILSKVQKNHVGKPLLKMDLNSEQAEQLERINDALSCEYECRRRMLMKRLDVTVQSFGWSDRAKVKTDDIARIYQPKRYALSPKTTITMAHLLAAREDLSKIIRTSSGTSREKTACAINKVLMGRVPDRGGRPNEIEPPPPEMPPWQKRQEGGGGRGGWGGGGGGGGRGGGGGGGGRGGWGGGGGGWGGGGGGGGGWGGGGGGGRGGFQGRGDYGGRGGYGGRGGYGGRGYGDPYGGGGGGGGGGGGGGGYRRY
UniProt Q9NSD9: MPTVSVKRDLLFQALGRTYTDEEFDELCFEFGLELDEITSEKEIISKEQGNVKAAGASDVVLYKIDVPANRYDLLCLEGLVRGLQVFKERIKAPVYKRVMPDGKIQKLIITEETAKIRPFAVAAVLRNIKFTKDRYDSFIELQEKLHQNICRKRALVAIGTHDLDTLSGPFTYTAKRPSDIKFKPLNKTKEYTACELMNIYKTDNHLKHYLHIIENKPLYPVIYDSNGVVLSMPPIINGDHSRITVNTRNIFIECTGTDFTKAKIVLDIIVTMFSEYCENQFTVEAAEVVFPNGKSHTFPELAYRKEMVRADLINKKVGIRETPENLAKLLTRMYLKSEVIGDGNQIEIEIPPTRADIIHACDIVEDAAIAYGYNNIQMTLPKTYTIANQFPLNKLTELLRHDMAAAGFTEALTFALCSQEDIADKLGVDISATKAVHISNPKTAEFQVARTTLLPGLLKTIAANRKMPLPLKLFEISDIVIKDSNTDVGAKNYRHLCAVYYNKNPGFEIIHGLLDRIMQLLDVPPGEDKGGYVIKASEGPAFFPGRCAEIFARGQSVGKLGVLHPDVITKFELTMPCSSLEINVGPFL
UniProt Q9Y3D6: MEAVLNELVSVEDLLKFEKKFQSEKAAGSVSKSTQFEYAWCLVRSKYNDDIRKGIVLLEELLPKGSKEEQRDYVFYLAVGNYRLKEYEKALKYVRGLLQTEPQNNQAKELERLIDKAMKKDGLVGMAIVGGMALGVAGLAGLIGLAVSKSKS
UniProt Q92520: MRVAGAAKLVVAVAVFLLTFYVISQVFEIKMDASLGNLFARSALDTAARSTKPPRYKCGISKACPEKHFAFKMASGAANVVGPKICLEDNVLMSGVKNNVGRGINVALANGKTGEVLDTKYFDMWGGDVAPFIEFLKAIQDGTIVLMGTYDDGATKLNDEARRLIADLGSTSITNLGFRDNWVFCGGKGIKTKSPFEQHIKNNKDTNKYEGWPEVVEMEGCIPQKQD

log2 fold change, inactive:
FLVCR1 (UniProt Q9Y5Y0) 0.039, FAM8A1 (UniProt Q9UBU6) -0.025, FGFR1OP (UniProt O95684) 0.006, FKBP14 (UniProt Q9NWM8) -0.039, FGF13 isoform 3 (UniProt Q92913) 0, FBXO6 (UniProt Q9NRD1) -0.118, FKBP2 (UniProt P26885) 0.026, FAM32A (UniProt Q9Y421) -0.111, FDPS (UniProt P14324) -0.156, FNBP4 isoform 2 (UniProt Q8N3X1) -0.012, FAM98B (UniProt Q52LJ0) 0.101, FARSB (UniProt Q9NSD9) -0.05, FAM98A (UniProt Q8NCA5) 0.006, FAU (UniProt P62861) 0.031, FIS1 (UniProt Q9Y3D6) 0.041, FAM3C (UniProt Q92520) 0.095
